Test results: PubChem BioAssay AID651814 (National Center for Advancing Translational Sciences (NCATS), 2012)
In all, about 2,100 compounds went through this assay and about 590 (28%) were called active. The inconclusive results got no clear call from the source; some entries with a clear call stand among them for comparison. Calls follow the shape of the dose curve; as a rule, active = well fitted inhibition curve with a large enough effect; inconclusive = small, poorly fitted or top-dose-only effect; inactive = flat fitted curve, though single readings scatter. Potencies of inconclusive entries are doubtful fits and often do not repeat.

Chains of the proteins cited; added tags and fusions are not shown. Lines headed by an entry give the natural chain unless they say otherwise; changes in a name come on top.
UniProt Q8IUX4: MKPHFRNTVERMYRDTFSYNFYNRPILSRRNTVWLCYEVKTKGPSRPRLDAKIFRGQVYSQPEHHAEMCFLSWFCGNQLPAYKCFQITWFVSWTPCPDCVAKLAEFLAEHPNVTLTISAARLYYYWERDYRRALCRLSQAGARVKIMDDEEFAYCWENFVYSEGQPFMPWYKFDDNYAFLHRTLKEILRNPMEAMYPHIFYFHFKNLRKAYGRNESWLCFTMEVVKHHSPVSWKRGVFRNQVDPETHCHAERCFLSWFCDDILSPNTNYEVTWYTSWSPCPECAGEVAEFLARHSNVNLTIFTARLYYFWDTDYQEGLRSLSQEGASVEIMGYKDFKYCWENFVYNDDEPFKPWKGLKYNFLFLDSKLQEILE

target: DNA dC->dU-editing enzyme APOBEC-3F (Homo sapiens) (UniProt Q8IUX4); test: qHTS for inhibitors of Vif-A3F interactions: Cherry picks; conditions: HeLa A3F-eYFP + Vif (tagged APOBEC3F with the HIV-1 protein that degrades it), eYFP fluorescence, 24 h; also: nearly all actives have a fitted effect of over 70% in size;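 as to max response: % of control where 0% means no effect; active compounds raise eYFP fluorescence by blocking Vif-driven A3F loss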
Procedure, shortened: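 Read-out: yellow fluorescence (ex 488 nm, em 500-530 nm) by laser-scanning cytometer after 24 h compound exposure, several concentrations, at 37 deg C. Cells: HeLa line stably co-expressing Vif and C-terminally eYFP-tagged A3F; MG132 served as positive control.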
Potency is read from the fitted curve at half-maximal effect.

Structure (SMILES)	Potency	max response
COc1ccccc1N1C(=O)S/C(=C\c2ccc(C)s2)C1=O	inconclusive: 14 µM [inhibitor, single point]	
Cn1nnnc1SCCNCc1cc(Br)ccc1OCc1ccccc1Cl		inactive: -14.7%
Cc1nc(-c2ccc(Cl)cc2)sc1C(=O)NN		inactive: -25%
Cc1ccc(NC(=O)c2ccc(NCc3ccco3)c([N+](=O)[O-])c2)cc1Cl	active: 16.4 µM	
COc1ccc(N/C=C/C(=O)c2cc(OC)c(OC)c(OC)c2)cc1	inconclusive: 1.98 µM [inhibitor, full curve]	
COc1cc(/C=N/NC(=O)c2cc(-c3c(C)nn(-c4ccccc4)c3C)n[nH]2)ccc1O	inconclusive: 15.8 µM [inhibitor, single point]	
Cc1[nH]c2ccccc2c1/C=C/c1ccnc2ccccc12	inconclusive: 3.26 µM [inhibitor, full curve]	
C=CCOC(=O)C1=C(C)NC(C)=C(C(=O)OCC=C)C1c1cn(-c2ccccc2)nc1-c1ccco1		inactive: 0.509%
CSC1=NC(C(Cl)(Cl)Cl)N=C(c2ccccc2)N1 (stereo unspecified)	inconclusive: 5.59 µM [inhibitor, partial curve]	
O=C(O)CSc1cc(NS(=O)(=O)c2cccc([N+](=O)[O-])c2)c2ccccc2c1O		inactive: -12.8%
CC1(C(=O)Nc2ccc3c(c2)OCO3)Cc2c(-c3ccccc3)ccnc2O1 (stereo unspecified)		inactive: -25.3%
COc1ccccc1Nc1cc2cc(Br)ccc2c(=O)[nH]1	inconclusive: 6.27 µM [inhibitor, partial curve]	
CN(C)c1ccc(/C=C/c2nc3ccccc3c(=O)[nH]2)cc1		inactive: -19.3%
c1ccc(Nc2nc(-c3ccccn3)cs2)cc1		inactive: -4.92%
CCCn1c(C2CCCN2c2nc(-c3cccc(Br)c3)cs2)nc2ccccc21 (stereo unspecified)		inactive: 2.76%
N#C/C(=C\c1ccc(-c2ccccc2C(=O)O)o1)c1nc2ccccc2[nH]1	inconclusive: 29.1 µM [inhibitor, single point]	
Nc1nc(-c2cc(O)ccc2[N+](=O)[O-])cc(-c2ccccc2)c1[N+](=O)[O-]	active: 12.5 µM	
CCCn1nc(C(=O)N2CC(=O)Nc3ccccc32)c2ccccc2c1=O	inconclusive: 9.94 µM [inhibitor, partial curve]	
COc1ccc(/C=C(/C(=O)c2cccs2)N2C=CC=CC2=C(C#N)C#N)cc1		inactive: -25.3%
COc1cc2c3nnc(-c4ccc(F)cc4)c-3cn(Cc3ccccc3F)c2cc1OC	inconclusive: 1.46 µM [inhibitor, full curve]	
CCN1C/C(=C/c2cccc([N+](=O)[O-])c2)C(=O)/C(=C/c2cccc([N+](=O)[O-])c2)C1		inactive: -17.2%
Cc1c(N/N=C(\C#N)C(=O)c2ccc(Cl)cc2)c(=O)n(-c2ccccc2)n1C		inactive: -12.8%
CN1CCc2c(sc3c2C(=O)NC(c2ccc(-c4ccc(Cl)cc4)o2)N3)C1 (stereo unspecified)		inactive: -10.4%
O=C(N/N=C/c1cccc2ccccc12)c1cc2ccccc2o1	inconclusive: 8.86 µM [inhibitor, partial curve]	

Structure (SMILES)	Potency	max response
O=C(Nc1ncc(Cc2ccc(SC(F)F)cc2)s1)c1ccccc1		inactive: -6.02%
CCOC(=O)N1CCC(Nc2nc3ccccc3nc2NS(=O)(=O)c2ccc(Cl)cc2)CC1		inactive: -1.97%
COc1ccc(N2C(=O)NC3CC2(C)Oc2ccccc23)cc1OC (stereo unspecified)		inactive: -29.4%
Cc1cccc(NC(=O)/C=C/c2ccc([N+](=O)[O-])s2)c1	active: 3.26 µM	
CCOc1ccc(C(=O)C(CCC(CN(C)C)C(=O)c2ccc(OCC)cc2)CN(C)C)cc1 (stereo unspecified)	inconclusive: 17.7 µM [inhibitor, single point]	
COC(=O)c1sc2cc([N+](=O)[O-])cc(SCC(C)C)c2c1N	active: 13 µM	
COc1ccc(C(=O)Nc2ccc3c(c2)N(C)C(=O)c2ccccc2S3)cc1OC		inactive: -28.4%
COc1cc(-c2cc(NC=O)c3ncc(-c4ccc(C(C)=O)cc4)n3c2)cc(OC)c1OC	inconclusive: 25 µM [inhibitor, single point]	
Fc1ccc(CNc2nc3ccc(Cl)cc3n3nnnc23)cc1		inactive: -20.9%
NNC(=O)c1oc2nc(-c3ccccc3)cc(-c3ccco3)c2c1N	inconclusive: 20.6 µM [inhibitor, single point]	
O=C(C(=Cc1ccccc1)CN1CCCCC1)c1ccccc1	inconclusive: 7.04 µM [inhibitor, single point]	
COc1ccc2c(C)cc(SCC(=O)N(C)C3CCS(=O)(=O)C3)nc2c1 (stereo unspecified)	inconclusive: 18.4 µM [inhibitor, single point]	
COc1ccc(/C=c2\s/c(=C/C(=O)c3ccc(C)cc3)[nH]c2=O)c(OC)c1	active: 18.4 µM	
CCN(c1ccc(NC(=O)CCc2nc3sc4c(c3c(=O)[nH]2)CCCC4)cc1)C(C)C		inactive: -16.9%
COC(=O)C1=COC(C)C2CN3CCc4c([nH]c5cc(OC)c(OC)cc45)C3CC12 (stereo unspecified)		inactive: -8.29%
CCC(=C/c1sc2ccc3ccccc3c2[n+]1C)/C=C1\Sc2ccc3ccccc3c2N1C		inactive: -0.328%
N#CC1=C(N)Oc2cc(N)ccc2C1C1CC=CCC1 (stereo unspecified)	inconclusive: 3.14 µM [inhibitor, full curve]	
C=C(C(=O)c1ccccc1)C(C)C(=C)C(=O)c1ccccc1	active: 12.5 µM	
CCOc1c(Cl)cc(/C=N/NC(N)=S)cc1OC		inactive: -28.8%
CN(C)c1ccc(/C=C/c2nc3ccccc3c(=O)n2CCO)cc1	active: 20.6 µM	
COc1cc(/C=N\Nc2ccc([N+](=O)[O-])cc2)ccc1OCC(=O)Nc1ccc(C)c(C)c1	inconclusive: 0.651 µM [inhibitor, full curve, poor fit]	
CCOC(=O)c1[nH]c(C)c(C(=O)Nc2ccc(C)cc2C)c1C	inconclusive: 1.77 µM [inhibitor, full curve]	
COc1ccc(-c2cc(NC=O)c3ncc(-c4ccc(C(C)=O)cc4)n3c2)cc1OC	inconclusive: 17.7 µM [inhibitor, single point]	
COc1cc(Nc2nc3ccccc3n3nnnc23)cc(OC)c1OC	inconclusive: 29.1 µM [inhibitor, single point]	

Quoted from the listing (3 entries):
Structure (SMILES)	Potency	max response
O=C(O)CSc1cc(NS(=O)(=O)c2cccc([N+](=O)[O-])c2)c2ccccc2c1O		inactive: -12.8%
CC1(C(=O)Nc2ccc3c(c2)OCO3)Cc2c(-c3ccccc3)ccnc2O1 (stereo unspecified)		inactive: -25.3%
COc1ccccc1Nc1cc2cc(Br)ccc2c(=O)[nH]1	inconclusive: 6.27 µM [inhibitor, partial curve]	

Continuation.

Structure (SMILES)	Potency	max response
COc1cccc(Sc2ccccc2/C=N/NC(N)=O)c1		inactive: -25.5%
O=C(N/N=C/c1ccc(Cl)cc1)c1cc2c(s1)-c1ccccc1CC2	inconclusive: 17.7 µM [inhibitor, partial curve]	
COc1cc2c(cc1OC)C(C)N(C(=O)c1cc(Cl)nc(Cl)c1)CC2 (stereo unspecified)	inconclusive: 9.94 µM [inhibitor, partial curve]	
CC1(C(=O)NCc2ccccc2)Cc2c(-c3cccc(C(N)=O)c3)ccnc2O1 (stereo unspecified)	inconclusive: 4.98 µM [inhibitor, partial curve]	
COC(=O)c1c(-c2cccnc2)csc1NC(=O)c1ccc2c(c1)OCO2		inactive: -11.9%
c1cncc(-c2nc(NCc3cccs3)c3ccccc3n2)c1		inactive: -5.9%
COc1ccccc1NC(=O)C1=C(C)Nc2nc3ccccc3n2C1c1cccs1 (stereo unspecified)	inconclusive: 1.4 µM [inhibitor, full curve, poor fit]	
COc1ccc(NC(=S)NN(C)C(=S)Nc2ccc(OC)cc2)cc1	inconclusive: 3.53 µM [inhibitor, full curve]	
O=C(/C=C/c1cccs1)NCc1ccc2c(c1)OCO2		inactive: 1.53%
Cc1c(N=N/C(C(=O)Nc2ccccc2)=C(/O)c2ccccc2)c(=O)n(-c2ccccc2)n1C	inconclusive: 23.1 µM [inhibitor, single point]	
Cc1ccc(N=C2NC(=O)/C(=C/c3cn(C)c4ccccc34)S2)cc1C	active: 17.7 µM	
COc1cccc(/C=N/NC(=O)c2cc3c(OC)c(OC)ccc3[nH]2)c1OC	inconclusive: 7.04 µM [inhibitor, partial curve]	
NC(=O)c1ccccc1NC(=S)NC(=O)CCc1ccccc1	inconclusive: 2.23 µM [inhibitor, full curve]	
COCCNC(=S)N/N=C/c1ccc(-c2ccc([N+](=O)[O-])cc2)o1	inconclusive: 15.8 µM [inhibitor, single point]	
N#C/C(=C\c1ccc(N2CCOCC2)o1)c1ccccc1	inconclusive: 15.8 µM [inhibitor, single point]	
COc1ccccc1C1c2ccc3ccccc3c2Oc2ncn(CCN(C)C)c(=N)c21 (stereo unspecified)	inconclusive: 14 µM [inhibitor, single point]	
COc1ccc(NCc2cc3cc4c(cc3n(CC(=O)Nc3cc(C)ccc3C)c2=O)OCCO4)cc1	inconclusive: 20.6 µM [inhibitor, single point]	
CS(=O)(=O)Nc1ccc(C2=NN(S(C)(=O)=O)C(c3ccc4nccnc4c3)C2)cc1 (stereo unspecified)		inactive: -7.65%
CN(C)c1ccc(C2C=C(c3ccc(Cl)cc3OC(F)F)Nc3ncnn32)cc1 (stereo unspecified)	inconclusive: 25 µM [inhibitor, single point]	
Cc1ccc(-n2nc3c(SCCN4CCOCC4)nnc(C)c3c2C)cc1		inactive: -16.8%
COc1ccc2[nH]c(C(=O)N/N=C/c3ccc(OC)c(O)c3)cc2c1	inconclusive: 3.53 µM [inhibitor, full curve]	
CCCOC(=O)/C(=C\c1ccc([N+](=O)[O-])o1)NC(=O)c1ccccc1	inconclusive: 29.1 µM [inhibitor, single point]	
COc1ccc(-n2c(C)cc(/C=C3\SC(=S)NC3=O)c2C)cc1	inconclusive: 29.1 µM [inhibitor, single point]	
